Where “and” joins values, the source holds several entries; their conditions need not be identical. Equal entries are not always repeated.
Assay: Use of chiral auxiliaries / phosphoramidite monomers in oligonucleotide synthesis (SOCICS or DPSE cycle), analysed by RP-HPLC/UPLC (Table 7)
Conditions: dC dimer; cycle DPSE; activator 0.45M ETT

SMILES	Dimer Conv. %	Dimer HPLC Area % dC	Dimer HPLC Area % dCC (Rp)	Dimer HPLC Area % dCC (Sp)	Dimer Rp/Sp	Dimer d.r.
CC1(C)CN[C@H]([C@H](O)C[Si](C)(c2ccccc2)c2ccccc2)C1 [WV-CA-111]	74.8% and 80.4%	11.40% and 8.51%	1.16% and 1.31%	87.45% and 90.18%	Sp	98.69 and 98.57
C[Si](C[C@@H](O)[C@@H]1C[C@@H]2CCCC[C@@H]2N1)(c1ccccc1)c1ccccc1 [WV-CA-112]	73.4% and 84.9%	12.13% and 6.34%	1.04% and 1.22%	86.83% and 92.44%	Sp	98.82 and 98.70

Same assay, conditions: dC dimer; cycle DPSE; activator 0.5M CMIMT

SMILES	Dimer Conv. %	Dimer HPLC Area % dC	Dimer HPLC Area % dCC (Rp)	Dimer HPLC Area % dCC (Sp)	Dimer Rp/Sp	Dimer d.r.	Dimer HPLC Area % dCC (PO)
CC(C)(C)c1ccc2c(c1)C([C@@H](O)[C@@H]1CCCN1)c1cc(C(C)(C)C)ccc1-2 [WV-CA-110]	97.8% and 93.2%	0.84% and 2.69%	1.89% and 2.19%	97.27% and 95.13%	Sp	98.09 and 97.75	–
CC1(C)CN[C@H]([C@H](O)C[Si](C)(c2ccccc2)c2ccccc2)C1 [WV-CA-111]	75.9% and 88.5%	10.80% and 4.73%	0.37% and 0.40%	88.83% and 94.87%	Sp	99.59 and 99.58	–
C[Si](C[C@@H](O)[C@@H]1C[C@@H]2CCCC[C@@H]2N1)(c1ccccc1)c1ccccc1 [WV-CA-112]	83.0% and 71.0% and 96.3%	–	0.37% and 0.24% and 1.31%	92.39% and 86.26% and 96.72%	Sp	99.60 and 99.72 and 98.66	0.64%
C[Si](C[C@@H](O)[C@@H]1C[C@@H]2CCC[C@@H]2N1)(c1ccccc1)c1ccccc1 [WV-CA-119, (S)-2-(methyldiphenylsilyl)-1-((2S,3aS,6aS)-octahydrocyclopenta[b]pyrrol-2-yl)ethan-1-ol]	97.3%	1.40%	0.72%	97.38%	Sp	99.27	0.50%

Same assay, conditions: dC dimer; cycle SOSICS; activator CMPT

SMILES	Dimer Conv. %	Dimer HPLC Area % dC	Dimer HPLC Area % dCC (PO)	Dimer HPLC Area % dCC (Rp)	Dimer HPLC Area % dCC (Sp)	Dimer Rp/Sp	Dimer d.r.
OC(c1ccccc1)(c1ccccc1)[C@@H]1CCCN1 [WV-CA-091]	27.4%	56.40%	1.39%	1.21%	39.44%	Sp	97.02
CC(C)N[C@@H](C(C)C)C1(O)CCCC1 [WV-CA-092]	4.8%	87.07%	0.00%	8.70%	0.00%	Rp	100.00
C[C@@](O)(c1ccccc1)[C@@H]1C[C@@H]2CCCC[C@@H]2N1 [WV-CA-097]	18.1%	66.15%	1.01%	9.33%	18.53%	Sp	66.51
OC1([C@@H]2C[C@@H]3CCCC[C@@H]3N2)CCCC1 [WV-CA-098]	39.8%	42.54%	1.86%	4.48%	49.12%	Sp	91.64
C[C@@](O)(c1ccccc1)[C@@H]1CCCN1 [WV-CA-100-L]	–	–	–	–	–	Sp	–
C[C@@](O)(c1ccccc1)[C@@H]1CCN1 [WV-CA-118, (R)-1-((S)-azetidin-2-yl)-1-phenylethan-1-ol]	87.9%	6.40%	3.13%	0.77%	87.49%	Sp	99.13
C[C@](O)(c1ccccc1)[C@@H]1CCN1 [WV-CA-118S, (S)-1-((S)-azetidin-2-yl)-1-phenylethan-1-ol]	82.5%	9.61%	1.27%	7.04%	81.05%	Sp	92.01
O[C@H](Cc1ccccc1)[C@@H]1CCCN1 [WV-CA-122, (R)-2-phenyl-1-((S)-pyrrolidin-2-yl)ethan-1-ol]	83.1%	6.04%	0.00%	0.77%	57.72%	Sp	98.68
C[C@@](O)(Cc1ccccc1)[C@@H]1CCCN1 [WV-CA-123, (R)-1-phenyl-2-((S)-pyrrolidin-2-yl)propan-2-ol]	78.2%	12.17%	0.63%	1.06%	84.45%	Sp	98.76
COc1ccc([C@@](C)(O)[C@@H]2CCCN2)cc1 [WV-CA-124]	60.1%	23.81%	2.14%	1.36%	67.25%	Sp	98.02
CNC1CCCCC1C1(O)CC1 (stereo not drawn) [WV-CA-160]	42.2%	40.4914%	0.6205%	45.8627%	11.7766%	Rp	79.57
OC1(C2CCCN2)c2ccccc2-c2ccccc21 (stereo not drawn) [WV-CA-164]	66.4%	20.2741%	0.2216%	9.2876%	69.4561%	Sp	88.21
CNC1(C)C2CCC(C2)C1(C)O (stereo not drawn) [WV-CA-168]	89.5%	5.5686%	0.4474%	1.017%	92.0584%	Sp	98.91
CNC1(C)C2CCCCC(C2)C1O (stereo not drawn) [WV-CA-169]	85.4%	7.8884%	0.3918%	2.1565%	88.6194%	Sp	97.62
CNC1(C)C(O)C2CCC1C1C3CCC(CC3)C21 (stereo not drawn) [WV-CA-170]	35.4%	45.8889%	0.5981%	46.7151%	2.2635%	Rp	95.38
CC1(C)CN[C@H](C2(O)CCCC2)C1 [WV-CA-201]	77.8%	12.43%	2.53%	2.03%	81.30%	Sp	97.56
OC1([C@H]2N[C@@H]3CC[C@H]2C3)CCCC1 [WV-CA-202]	75.9%	13.69%	2.10%	0.83%	82.10%	Sp	98.99
COc1ccc([C@@H](O)[C@@H]2CCCN2)cc1 [WV-CA-206]	9.9%	77.99%	1.25%	0.80%	14.83%	Sp	94.86
CN[C@H]1CCCC[C@@H]1O [WV-CA-207]	36.2%	33.39%	1.20%	24.80%	11.33%	Rp	68.64
CN[C@@H]1CCCC[C@@]1(C)O [WV-CA-216]	95.6%	2.24%	1.78%	4.56%	89.54%	Sp	95.15
CN[C@H]1CCCCC[C@@H]1O [WV-CA-221]	48.7%	30.46%	2.33%	46.40%	8.38%	Rp	84.71
CN[C@@H]1CCCCC[C@H]1O [WV-CA-222]	52.3%	25.83%	2.17%	2.96%	50.72%	Sp	94.49
CN[C@H]1CCCCCC[C@@H]1O [WV-CA-223]	32.5%	41.23%	2.37%	2.30%	34.47%	Sp	93.75
CN[C@@H]1CCCCCC[C@H]1O [WV-CA-224]	32.1%	44.27%	2.04%	36.82%	2.39%	Rp	93.90
C[C@@](O)(C1CCC1)[C@@H]1CCCN1 [WV-CA-225]	77.3%	12.71%	1.78%	1.48%	81.99%	Sp	98.22

Same assay, conditions: no dimer cycle, activator or HPLC data printed

SMILES	Dimer Rp/Sp
C[C@](O)(c1ccccc1)[C@H]1CCCN1 [WV-CA-100-D]	Sp

Source: patent publication US12428442B2, “Compounds, compositions and methods for synthesis” (WAVE LIFE SCIENCES LTD., priority 2017, dated 2025)
